Data: patent publication US9428452B2, “Compounds” (Glaxo Group Limited, priority 2012, dated 2016)
Some entries share one result that the patent states for a list of compounds.

Tested on: IL-17A secreted from antiCD3/CD28 stimulated Peripheral Blood Mononuclear cells (PBMC)
Experiment: Peripheral Blood Mononucleocyte Cell Assay (PBMC Assay - IL-17)
Type: cell-based
Conditions: IL-17A release, antiCD3/CD28 stimulated human PBMC, 48 hours
Experimental: Peripheral Blood Mononucleocvte Cell Assay (PBMC Assay—IL-17) […]
This assay is designed to measure levels of IL-17A secreted from antiCD3/CD28 stimulated frozen Peripheral Blood Mononuclear cells (PBMC) isolated from human blood with the aim of identifying inhibitors of IL-17A release.
2. The compounds for screening are dispensed into a master plate at 10 mM top concentration which are serially diluted 1:3 across 11 points in DMSO, then 500 nL is transferred into a 384-well flat-bottomed Greiner plate to which 50 uL of cell suspension is added: for the single shot screening the highest concentration of compound is 10^−5M; for 11 point full curve dose response studies the highest concentration is 10^−4 M.
As a low control, DMSO (as supplied, for example, by VWR) (final concentration 1%) in column 6 (16 points).
As a high control, 5-(4-fluorophenyl)-2-ureidothiophene-3-carboxamide (obtainable from, for example, Sigma) at a final concentration of 10^−4 M in DMSO should be used in column 18 (16 points).
9. Make the cell suspension at the concentration 8×10^5 cells/mL to give a final number of 40,000 cells/well.
1. […]
7. Add 35 uL of MSD Read Buffer T×2 using multidrop.
8. Read plates on MSD MA6000 reader using the 384 well plate protocol as per manufacturer's instructions.

CCc1ccc(N(CC(C)C)S(=O)(=O)c2ccc([C@@H](O)CN3CCOCC3)c(CO)c2)cc1 [Example E126, N-(4-ethylphenyl)-4-(1-hydroxy-2-morpholinoethyl)-3-(hydroxymethyl)-N-isobutylbenzenesulfonamide]
mean pIC50: > 6.0
